We go through one substance from publication PMC5103190.

Sequences of proteins named here, by UniProt entry; tags and fusion partners are left off.
UniProt P19793: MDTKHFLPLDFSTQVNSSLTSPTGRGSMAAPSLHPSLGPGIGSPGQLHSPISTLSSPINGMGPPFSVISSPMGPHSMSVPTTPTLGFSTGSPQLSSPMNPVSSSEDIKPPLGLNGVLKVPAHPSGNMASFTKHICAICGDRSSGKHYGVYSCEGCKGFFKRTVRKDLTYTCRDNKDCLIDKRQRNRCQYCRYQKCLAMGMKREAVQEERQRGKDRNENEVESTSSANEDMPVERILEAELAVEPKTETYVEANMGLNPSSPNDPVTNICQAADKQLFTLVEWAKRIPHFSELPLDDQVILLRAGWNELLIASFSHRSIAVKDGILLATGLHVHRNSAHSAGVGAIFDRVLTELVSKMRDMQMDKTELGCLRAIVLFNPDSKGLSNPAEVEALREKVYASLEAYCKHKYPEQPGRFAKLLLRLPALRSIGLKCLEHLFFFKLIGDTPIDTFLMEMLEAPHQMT

This assay addresses T1, Liver X Receptor α (human (endogenous in SK-N-MC)) (UniProt Q13133).
T1 sequence: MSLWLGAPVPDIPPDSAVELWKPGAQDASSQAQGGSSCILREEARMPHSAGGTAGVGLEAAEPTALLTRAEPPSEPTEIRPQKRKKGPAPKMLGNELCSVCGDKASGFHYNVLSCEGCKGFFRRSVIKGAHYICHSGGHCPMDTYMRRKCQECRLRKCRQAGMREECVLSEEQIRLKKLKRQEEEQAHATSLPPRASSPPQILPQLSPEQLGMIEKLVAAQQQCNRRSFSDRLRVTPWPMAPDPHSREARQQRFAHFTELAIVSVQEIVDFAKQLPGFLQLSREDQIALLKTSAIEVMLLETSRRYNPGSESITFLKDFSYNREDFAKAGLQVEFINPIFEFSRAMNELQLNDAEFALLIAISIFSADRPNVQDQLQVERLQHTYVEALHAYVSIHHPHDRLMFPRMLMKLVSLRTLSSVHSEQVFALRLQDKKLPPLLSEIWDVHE
The assay is described as follows: co-IP; immunoprecipitation of endogenous proteins from cells with or without high glucose (D-glucose) treatment; which protein was precipitated is not given.

These are yes or no findings as the source states them, for the method shown. In cells and extracts the contact can be indirect. Some binding calls cover weakened binding; strength is not graded here.

In the case of “retinoid X receptor α (from UniProt P19793 1-462)”, the binding entry was “binds”.
